Measurements as given in publication PMC10521137.
These are yes or no findings as the source states them, for the method shown. Some results given as binding are weak or reduced against the parent protein; the word gives no strength.

By UniProt entry, the sequences of proteins in these tests, tags left out. Where a name states a change or a piece, a line headed by the entry shows the natural chain unless it says otherwise. Residues count along the entry.
UniProt P22216: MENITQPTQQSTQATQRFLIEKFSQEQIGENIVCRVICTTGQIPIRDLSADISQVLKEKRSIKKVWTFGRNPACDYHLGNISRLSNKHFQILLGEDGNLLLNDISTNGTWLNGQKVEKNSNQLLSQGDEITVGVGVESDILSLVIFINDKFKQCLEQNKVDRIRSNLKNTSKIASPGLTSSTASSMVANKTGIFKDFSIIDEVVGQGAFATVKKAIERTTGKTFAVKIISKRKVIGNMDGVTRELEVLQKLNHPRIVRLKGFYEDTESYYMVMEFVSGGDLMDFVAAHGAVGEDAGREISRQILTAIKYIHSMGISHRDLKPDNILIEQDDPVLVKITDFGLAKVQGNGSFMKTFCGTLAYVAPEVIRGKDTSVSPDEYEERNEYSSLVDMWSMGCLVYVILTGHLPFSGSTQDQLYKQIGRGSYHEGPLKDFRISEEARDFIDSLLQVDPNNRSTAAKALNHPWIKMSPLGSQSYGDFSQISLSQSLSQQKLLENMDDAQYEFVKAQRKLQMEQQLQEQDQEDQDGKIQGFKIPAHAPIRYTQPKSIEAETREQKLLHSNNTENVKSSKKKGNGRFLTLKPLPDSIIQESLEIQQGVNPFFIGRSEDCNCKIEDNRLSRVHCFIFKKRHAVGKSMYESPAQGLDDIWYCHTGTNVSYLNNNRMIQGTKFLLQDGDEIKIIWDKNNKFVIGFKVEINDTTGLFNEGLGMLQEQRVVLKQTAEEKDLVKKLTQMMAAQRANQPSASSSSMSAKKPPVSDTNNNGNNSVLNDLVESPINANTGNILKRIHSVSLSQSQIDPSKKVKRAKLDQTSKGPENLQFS
Rad53 FHA1 domain (1-165) (yeast two-hybrid): residues 1-165 of P22216

What was measured:
Test in all cases: two-hybrid; yeast two-hybrid in L40 diploid strain with bait and prey plasmids; growth on selective -L-T-H against non-selective -L-T plates, 3 days
[1] = target: T1, Pol12, full length (yeast two-hybrid) (S. cerevisiae) (UniProt P38121)
T1 sequence: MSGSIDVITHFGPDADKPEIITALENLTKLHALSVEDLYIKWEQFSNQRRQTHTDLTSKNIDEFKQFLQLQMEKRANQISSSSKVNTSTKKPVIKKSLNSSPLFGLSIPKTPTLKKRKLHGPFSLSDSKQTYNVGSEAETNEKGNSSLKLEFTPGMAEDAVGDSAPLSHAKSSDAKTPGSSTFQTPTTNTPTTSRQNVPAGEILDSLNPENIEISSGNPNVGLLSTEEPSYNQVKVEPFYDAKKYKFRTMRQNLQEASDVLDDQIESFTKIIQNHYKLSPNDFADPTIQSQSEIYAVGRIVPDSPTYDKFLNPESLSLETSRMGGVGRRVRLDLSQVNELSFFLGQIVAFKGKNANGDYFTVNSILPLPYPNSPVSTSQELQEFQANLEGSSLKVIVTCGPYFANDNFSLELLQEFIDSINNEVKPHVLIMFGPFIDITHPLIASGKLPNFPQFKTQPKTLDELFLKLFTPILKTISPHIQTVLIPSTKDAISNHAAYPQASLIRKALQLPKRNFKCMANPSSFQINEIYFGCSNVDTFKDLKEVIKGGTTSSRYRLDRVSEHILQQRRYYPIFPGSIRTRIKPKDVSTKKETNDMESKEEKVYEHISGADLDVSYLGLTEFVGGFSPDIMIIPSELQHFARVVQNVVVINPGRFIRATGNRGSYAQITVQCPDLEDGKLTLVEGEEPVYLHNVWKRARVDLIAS

[2] = target: Rad53 FHA1 domain (1-165) (yeast two-hybrid) (S. cerevisiae) (UniProt P22216)
[3] = target: full length Rad53 (yeast two-hybrid) (S. cerevisiae) (UniProt P22216)

Measured: binding

B1: Wild type full length Pol1 (yeast two-hybrid) (protein, UniProt P13382 1-1468)
chain: MSSKSEKLEKLRKLQAARNGTSIDDYEGDESDGDRIYDEIDEKEYRARKRQELLHDDFVVDDDGVGYVDRGVEEDWREVDNSSSDEDTGNLASKDSKRKKNIKREKDHQITDMLRTQHSKSTLLAHAKKSQKKSIPIDNFDDILGEFESGEVEKPNILLPSKLRENLNSSPTSEFKSSIKRVNGNDESSHDAGISKKVKIDPDSSTDKYLEIESSPLKLQSRKLRYANDVQDLLDDVENSPVVATKRQNVLQDTLLANPPSAQSLADEEDDEDSDEDIILKRRTMRSVTTTRRVNIDSRSNPSTSPFVTAPGTPIGIKGLTPSKSLQSNTDVATLAVNVKKEDVVDPETDTFQMFWLDYCEVNNTLILFGKVKLKDDNCVSAMVQINGLCRELFFLPREGKTPTDIHEEIIPLLMDKYGLDNIRAKPQKMKYSFELPDIPSESDYLKVLLPYQTPKSSRDTIPSDLSSDTFYHVFGGNSNIFESFVIQNRIMGPCWLDIKGADFNSIRNASHCAVEVSVDKPQNITPTTTKTMPNLRCLSLSIQTLMNPKENKQEIVSITLSAYRNISLDSPIPENIKPDDLCTLVRPPQSTSFPLGLAALAKQKLPGRVRLFNNEKAMLSCFCAMLKVEDPDVIIGHRLQNVYLDVLAHRMHDLNIPTFSSIGRRLRRTWPEKFGRGNSNMNHFFISDICSGRLICDIANEMGQSLTPKCQSWDLSEMYQVTCEKEHKPLDIDYQNPQYQNDVNSMTMALQENITNCMISAEVSYRIQLLTLTKQLTNLAGNAWAQTLGGTRAGRNEYILLHEFSRNGFIVPDKEGNRSRAQKQRQNEENADAPVNSKKAKYQGGLVFEPEKGLHKNYVLVMDFNSLYPSIIQEFNICFTTVDRNKEDIDELPSVPPSEVDQGVLPRLLANLVDRRREVKKVMKTETDPHKRVQCDIRQQALKLTANSMYGCLGYVNSRFYAKPLAMLVTNKGREILMNTRQLAESMNLLVVYGDTDSVMIDTGCDNYADAIKIGLGFKRLVNERYRLLEIDIDNVFKKLLLHAKKKYAALTVNLDKNGNGTTVLEVKGLDMKRREFCPLSRDVSIHVLNTILSDKDPEEALQEVYDYLEDIRIKVETNNIRIDKYKINMKLSKDPKAYPGGKNMPAVQVALRMRKAGRVVKAGSVITFVITKQDEIDNAADTPALSVAERAHALNEVMIKSNNLIPDPQYYLEKQIFAPVERLLERIDSFNVVRLSEALGLDSKKYFRREGGNNNGEDINNLQPLETTITDVERFKDTVTLELSCPSCDKRFPFGGIVSSNYYRVSYNGLQCKHCEQLFTPLQLTSQIEHSIRAHISLYYAGWLQCDDSTCGIVTRQVSVFGKRCLNDGCTGVMRYKYSDKQLYNQLLYFDSLFDCEKNKKQELKPIYLPDDLDYPKEQLTESSIKALTEQNRELMETGRSVVQKYLNDCGRRYVDMTSIFDFMLN
binds: all assays above
